Results are given in words; binding and its absence hold for the method and conditions named. Binding seen in cells or lysates may run through a third protein. Tags and fused reporters may be left off the sequences shown.
Molecular target: T1, GFP-PKB (pEGFP-HA-Akt, murine AKT1) (mouse), P31750
T1 chain: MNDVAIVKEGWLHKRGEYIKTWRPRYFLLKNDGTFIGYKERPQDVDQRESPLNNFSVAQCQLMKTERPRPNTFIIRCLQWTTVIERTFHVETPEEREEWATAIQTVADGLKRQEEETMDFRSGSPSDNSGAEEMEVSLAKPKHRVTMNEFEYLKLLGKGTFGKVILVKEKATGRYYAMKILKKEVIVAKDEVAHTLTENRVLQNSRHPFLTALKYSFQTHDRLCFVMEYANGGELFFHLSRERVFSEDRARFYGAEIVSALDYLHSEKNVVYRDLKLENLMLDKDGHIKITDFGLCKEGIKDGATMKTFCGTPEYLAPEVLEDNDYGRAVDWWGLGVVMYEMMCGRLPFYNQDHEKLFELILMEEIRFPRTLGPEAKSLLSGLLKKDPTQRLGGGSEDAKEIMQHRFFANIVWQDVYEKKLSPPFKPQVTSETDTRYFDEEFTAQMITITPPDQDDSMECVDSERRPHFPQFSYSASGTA
Assay: FRET or BRET; FRET detected by two-photon time domain FLIM (decrease of EGFP donor lifetime with mRFP acceptor) in cotransfected NIH3T3 cells fixed in 4% paraformaldehyde; basal, 5 min PDGF, or 20 min LY294002 pretreatment before PDGF; cytoplasm and plasma membrane pixels separated
Conditions: remark: other sources report otherwise

B1: RFP-PKB (monomeric RFP fused to the N terminus of HA-PKBalpha, murine AKT1), P31750 1-480 (enzyme)
chain: MNDVAIVKEGWLHKRGEYIKTWRPRYFLLKNDGTFIGYKERPQDVDQRESPLNNFSVAQCQLMKTERPRPNTFIIRCLQWTTVIERTFHVETPEEREEWATAIQTVADGLKRQEEETMDFRSGSPSDNSGAEEMEVSLAKPKHRVTMNEFEYLKLLGKGTFGKVILVKEKATGRYYAMKILKKEVIVAKDEVAHTLTENRVLQNSRHPFLTALKYSFQTHDRLCFVMEYANGGELFFHLSRERVFSEDRARFYGAEIVSALDYLHSEKNVVYRDLKLENLMLDKDGHIKITDFGLCKEGIKDGATMKTFCGTPEYLAPEVLEDNDYGRAVDWWGLGVVMYEMMCGRLPFYNQDHEKLFELILMEEIRFPRTLGPEAKSLLSGLLKKDPTQRLGGGSEDAKEIMQHRFFANIVWQDVYEKKLSPPFKPQVTSETDTRYFDEEFTAQMITITPPDQDDSMECVDSERRPHFPQFSYSASGTA
B1 was tested, and the binding was “no binding”.

— PMC1845162
